The test deals with TRIM9 (endogenous, mouse) (mouse (endogenous in embryonic cortex)) (UniProt Q8C7M3). As to the kind of experiment: co-IP; immunoprecipitation with the TRIM9 polyclonal antibody from wild-type mouse embryonic cortical / brain lysate; Trim9-/- lysate as control; blot probed for TRIM67.

Sequences of proteins named here, by UniProt entry; tags and fusion partners are left off.
UniProt Q8C7M3: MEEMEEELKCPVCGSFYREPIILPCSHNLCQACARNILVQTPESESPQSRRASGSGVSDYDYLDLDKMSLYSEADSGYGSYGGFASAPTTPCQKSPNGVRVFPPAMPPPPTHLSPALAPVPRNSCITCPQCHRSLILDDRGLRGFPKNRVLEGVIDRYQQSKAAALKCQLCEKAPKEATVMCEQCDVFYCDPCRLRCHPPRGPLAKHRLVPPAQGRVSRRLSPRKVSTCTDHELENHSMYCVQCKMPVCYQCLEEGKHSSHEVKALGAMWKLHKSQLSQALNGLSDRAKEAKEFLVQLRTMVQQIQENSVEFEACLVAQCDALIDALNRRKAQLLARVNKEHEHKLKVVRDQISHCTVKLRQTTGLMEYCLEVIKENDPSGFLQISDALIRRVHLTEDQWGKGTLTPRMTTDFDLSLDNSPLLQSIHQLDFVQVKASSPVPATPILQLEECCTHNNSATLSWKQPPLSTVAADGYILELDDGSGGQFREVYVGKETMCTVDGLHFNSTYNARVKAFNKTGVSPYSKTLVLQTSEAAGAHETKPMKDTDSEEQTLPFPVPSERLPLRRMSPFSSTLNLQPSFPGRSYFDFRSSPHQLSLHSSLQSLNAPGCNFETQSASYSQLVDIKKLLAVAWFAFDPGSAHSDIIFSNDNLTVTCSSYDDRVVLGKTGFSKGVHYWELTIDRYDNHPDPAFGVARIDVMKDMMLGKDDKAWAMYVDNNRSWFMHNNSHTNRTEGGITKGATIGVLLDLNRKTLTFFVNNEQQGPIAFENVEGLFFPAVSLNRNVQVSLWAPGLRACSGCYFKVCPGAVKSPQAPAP

These are yes or no findings as the source states them, for the method shown. Binding seen in cells or lysates may run through a third protein. Some results given as binding are weak or reduced against the parent protein; the word gives no strength.

B1: TRIM67 (endogenous, mouse) (protein, UniProt Q505D9 1-768)
chain: MEEELKCPVCGSLFREPIILPCSHNVCLPCARTIAVQTPDGEQHLPPPLLLSRGAAAAATPPDQDAAAGATSGGAGANTAGGLGGGATGGGDHADKLSLYSETDSGYGSYTPSLKSPNGVRVLPMVPAPPGSSAAAARGAACSSLCSSSSSITCPQCHRSASLDHRGLRGFQRNRLLEGIVQRYQQGRGVVPGAAAAPAVAICQLCDRTPPEPAATLCEQCDVLYCATCQLKCHPSRGPFAKHRLVQPPPPPTPPEATPAVTGTSTASSAGGCRSPGGAGASAPRKFPTCPEHEMENYSMYCVSCRSPVCYMCLEEGRHSKHEVKPLGATWKQHKAQLSQALNGVSDKAKEAKEFLVQLKNILQQIQENGLDYEACLVAQCDALVDALTRQKAKLLTKVTKEREHKLKMVWDQINHCTLKLRQSTGLMEYCLEVIKEDDPSGFLQISDALIKRVQTSQEQWVKGALEPKVSAEFDLTLDSEPLLQAIHQLDFVQMKLPPVPLLQLEKCCTRNNSVTLAWRTPPFTHSPAEGYILELDDGDGGQFREVYVGKETLCTIDGLHFNSTYNARVKAFNSSGVGPYSKTVVLQTSDVAWFTFDPNSGHRDIILSNDNQTATCSSYDDRVVLGTAAFSKGVHYWELHVDRYDNHPDPAFGVARASVVKDMMLGKDDKAWAMYVDNNRSWFMHCNSHTNRTEGGVCKGATVGVLLDLNKHTLTFFINGQQQGPTAFSHVDGVFMPALSLNRNVQVTLHTGLEVPTNLGRPKLSGN
As for B1, the binding result was “binds”.

These data come from paper PMC6002264.
